# Measured values reported in PubChem BioAssay AID651640 (Broad Institute, 2012).
# Among all 350,000 compounds or so, about 6,000 (1.7%) were called active. The shares of active, inactive and inconclusive entries below differ from those in the screen. Cut-off read from the data, not from the text of the source: active = CPE inhibition above about 20% (passing the limit was not always enough); inconclusive = no clear call, values can overlap the other calls; tested in BHK-21 cells.
# Test: protection of cells from dengue 2 killing – plate reader, single concentration, primary screen (AID 651640);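 note: 0% = median of neutral control wells and 100% = median of positive control wells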
# Settings: DENV2-infected cells, cytopathic effect rescue, at 9.99 µM, hits give high values
row,SMILES,CPE inhibition
1,CC1(C)Cc2c(sc(NC(=O)c3ccc(C(=O)c4ccccc4)cc3)c2C#N)C(C)(C)N1,inconclusive: 22.6%
2,NC(=O)c1cc2ccccc2o/c1=N\NC(=O)c1ccncc1,inconclusive: 24.4%
3,COc1ccc(CN(C)C[C@@H]2Oc3ccc(NS(=O)(=O)c4ccc(F)cc4)cc3CC(=O)N([C@H](C)CO)C[C@@H]2C)cc1,active: 23.5%
4,O=C(O)c1cccc2c1C(=O)c1cc([N+](=O)[O-])cc([N+](=O)[O-])c1-2,inconclusive: 26.5%
5,O=C(C[C@@H]1C[C@@H]2c3cc(NC(=O)c4ccc5c(c4)OCO5)ccc3O[C@@H]2[C@H](CO)O1)NC1CCCC1,active: 38.4%
6,CC(C)C#Cc1ccc2c(c1)O[C@@H](CN(C)C(=O)NC(C)C)[C@@H](C)CN([C@H](C)CO)S2(=O)=O,inactive: -1.89%
7,CN(C(=O)c1ccc(N2CCCCC2)c([N+](=O)[O-])c1)C1CCS(=O)(=O)C1 (stereo unspecified),inactive: -5.25%
8,C[C@@H]1CN([C@@H](C)CO)C(=O)c2cc(NS(=O)(=O)c3ccccc3)ccc2O[C@@H]1CN(C)C(=O)Nc1ccc(F)cc1,inconclusive: 31.7%
9,CCc1nc(SCc2ccccc2C)n[nH]1,active: 32.3%
10,C[C@H](CO)N1C[C@H](C)[C@H](CN(C)S(=O)(=O)c2ccc(Cl)cc2)OCCCC[C@H](C)Oc2ccc(NS(=O)(=O)c3ccc(F)cc3)cc2C1=O,inconclusive: 40.3%
11,Cc1noc(C)c1S(=O)(=O)Nc1ccc2c(c1)CC(=O)N([C@@H](C)CO)C[C@H](C)[C@@H](CN(C)C)O2,inactive: -1.32%
12,CCC(C)Nc1nc(N)c([N+](=O)[O-])c(NCCO)n1 (stereo unspecified),active: 94%
13,Oc1ccc(Cl)cc1CNc1cnc2ccccc2c1,inconclusive: 53.6%
14,CO[C@H](CN(C)C(=O)c1cnccn1)[C@H](C)CN([C@H](C)CO)S(=O)(=O)c1ccc(F)cc1,inconclusive: 26.9%
15,C[C@H]1CN([C@@H](C)CO)C(=O)c2cccc(NS(C)(=O)=O)c2O[C@@H]1CN(C)Cc1ccc(C(=O)Nc2ccccc2N)cc1,active: 75.1%
16,CCN(CC(=O)Nc1cccc(F)c1)CC(=O)Nc1ccccc1OC,inconclusive: 23.7%
17,O=C1CC(Nc2ccc(N3CCOCC3)cc2)C(=O)N1c1ccccc1F (stereo unspecified),inconclusive: 33.1%
18,COc1cc(O)c(CCO)c2c1C(=O)C[C@@H](C)O2,inconclusive: 39.6%
19,CNC[C@H]1Oc2c(NS(=O)(=O)c3cccs3)cccc2C(=O)N([C@@H](C)CO)C[C@H]1C,active: 26.5%
20,COCCNc1ncnc2c1ncn2[C@H]1CN(CCOC)C[C@@H](CO)O1,inconclusive: 43.7%
21,C[C@@H]1CN([C@H](C)CO)C(=O)c2cc(NC(=O)Nc3ccc4c(c3)OCO4)ccc2O[C@@H](C)CCCCO[C@@H]1CN(C)Cc1ccc2c(c1)OCO2,inactive: -24.7%
22,Cn1c(=O)c2c(nc(NCCNC(=O)c3ccco3)n2Cc2ccc(F)cc2)n(C)c1=O,inactive: 17.9%
23,COc1ccc(N2C(=O)c3ccccc3C(C)(C)C2=O)cc1,inactive: 11.3%
24,COc1ccc(S(=O)(=O)N(C)c2ccc(C(=O)N3CCCC3)cc2)cc1OC,inconclusive: 20.9%

row,SMILES,CPE inhibition
1,O=C(CN1CCN(c2ccccc2F)CC1)NCc1ccccc1,inconclusive: 39.8%
2,O=C(Nc1ccccc1F)N1CC(=O)N2[C@H](C1)[C@@H](c1ccc(C#CC3CC3)cc1)[C@@H]2CO,inconclusive: 53.6%
3,O=C(CC1CC1)N[C@@H]1CC[C@@H](CCNS(=O)(=O)c2ccc(Cl)cc2)O[C@@H]1CO,inconclusive: 24%
4,C[C@H]1CN([C@@H](C)CO)C(=O)c2cccc(NC(=O)Nc3ccccc3)c2O[C@H]1CN(C)C,inconclusive: 55.3%
5,CCC(=O)NC[C@@H]1[C@@H](c2ccc(C3=CCCC3)cc2)[C@@H](CO)N1C(=O)C1CC1,inconclusive: 1.24%
6,CC(C)C1C(=O)N(Cc2cn(CC3CCCCC3)nn2)CCS(=O)(=O)N1Cc1ccc(-c2ccc(F)nc2)cc1 (stereo unspecified),inconclusive: 47.3%
7,CCCCOCC1CN(CCCC)S(=O)(=O)c2c(Oc3ccc(OC)cc3)cccc2O1 (stereo unspecified),inconclusive: 21.7%
8,O=C1C2CCCN2C(c2ccc(Br)cc2)N1c1ccc(F)cc1 (stereo unspecified),inconclusive: 20.6%
9,COc1ccc2c3c(n(C)c2c1)[C@H](CO)N(Cc1ccc(F)cc1)CC31CCN(CC2CCOCC2)CC1,inconclusive: 24.4%
10,COc1ccc(CCNC(=O)C(=O)c2c[nH]c3ccccc23)cc1OC,inactive: 19.9%
11,Cc1ccccc1-c1ccc([C@@H]2[C@@H](CO)N3CCCCN(S(C)(=O)=O)C[C@@H]23)cc1,inactive: 20%
12,COc1cccc(N(C(=O)CNC(=O)c2ccco2)C(C(=O)NC2CCCC2)c2ccco2)c1 (stereo unspecified),inconclusive: 69.9%
13,CC(C)CC(COCc1ccc(Cl)cc1)N1CCN(C(=O)c2ccc(Cl)cc2Cl)CCC1=O (stereo unspecified),active: 100%
14,C[C@@H]1CCCCO[C@H](CN(C)C(=O)Nc2ccccc2)[C@H](C)CN([C@@H](C)CO)C(=O)c2cc(NC(=O)NC3CCCCC3)ccc2O1,inconclusive: 24.2%
15,CCOc1ccc(S(=O)(=O)N(CC(=O)NCC(F)(F)F)Cc2ccco2)cc1,inconclusive: 35.1%
16,Cc1noc(C)c1NC(=O)N(C)C[C@H]1Oc2ccc(NC(=O)Cc3ccccc3)cc2CC(=O)N([C@H](C)CO)C[C@H]1C,inactive: -8.8%
17,COCCNC(=O)C[C@H]1CC[C@H]2[C@H](COc3ccc(NC(C)=O)cc3C(=O)N2C)O1,inactive: -2.69%
18,Cc1nc(NC(=O)COC(=O)C2CC3CCCC(C2)C3=O)c(Cl)cc1Cl (stereo unspecified),inconclusive: 26.3%
19,O=C(O)c1c2c(nc3ccc(S(=O)(=O)N4CCC(C(=O)N5CCCCC5)CC4)cc13)CCCC2,inconclusive: 36.8%
20,COC(=O)C[C@H]1C[C@@H]2c3cc(NS(=O)(=O)c4ccc(OC)cc4)ccc3O[C@@H]2[C@@H](CO)O1,inactive: -0.348%
21,CO[C@H]1CN(C)C(=O)c2ccc(NS(=O)(=O)c3ccccc3C)cc2OC[C@H](C)NC[C@@H]1C,inactive: 16.3%
22,CCN(CC)CCNC(=O)c1sc2nc(-c3ccccc3)cn2c1C,inactive: -1.8%
23,CO[C@@H]1CN(C)C(=O)c2cc(NS(=O)(=O)c3ccccc3)ccc2OC[C@@H](C)N(Cc2nccs2)C[C@@H]1C,inactive: -6.13%
24,Cc1ccc(S(=O)(=O)Nc2cccc3c2O[C@H](CN(C)C(=O)Nc2c(C)noc2C)[C@H](C)CN([C@H](C)CO)C3=O)cc1,inactive: 8.69%

row,SMILES,CPE inhibition
1,O=C(Cc1cccc(NC(=O)C2CCN(C(=O)c3ccccc3)CC2)c1)Nc1cccc(C(=O)N2CCCCC2)c1,inactive: 0.043%
2,Cc1noc(C)c1NC(=O)N(C)C[C@H]1Oc2ncc(C#CCN(C)C)cc2C(=O)N([C@H](C)CO)C[C@@H]1C,inactive: 9.01%
3,C[C@H](CO)N1C[C@H](C)[C@H](CN(C)Cc2ccccn2)Oc2cc(-c3ccc(C#N)cc3)ccc2S1(=O)=O,inactive: -5.76%
4,COc1ccc(S(=O)(=O)Nc2ccc3c(c2)[C@H]2C[C@@H](CC(=O)NCC4CC4)O[C@@H](CO)[C@H]2O3)cc1,inactive: -3.19%
5,CCCCNC(=O)C1(C)CCCCN1Cc1ccc(OCc2ccccc2)cc1 (stereo unspecified),inconclusive: 33.7%
6,Cc1cn(CC(=O)NCC(C)c2ccccc2)c(=O)[nH]c1=O (stereo unspecified),inconclusive: 21.8%
7,C[C@@H]1CCCCO[C@@H](CN(C)C(=O)Nc2cccc3ccccc23)[C@H](C)CN([C@H](C)CO)C(=O)c2cc(NC(=O)c3ccncc3)ccc2O1,inactive: 2.9%
8,OC[C@H]1[C@H]2c3ccccc3NC[C@H]2N1CC1CCOCC1,active: 21.1%
9,CCOC(=O)c1sc(=S)n(C)c1NC(=O)c1ccc(C(C)(C)C)cc1,inconclusive: 50.8%
10,CCOC(=O)C(Oc1ccc2c(-c3ccccc3)cc(=O)oc2c1)c1ccccc1 (stereo unspecified),inconclusive: 49.5%
11,CSc1ncc(C(=O)Nc2ccccc2)cn1,inconclusive: 25.3%
12,Cc1ccc(S(=O)(=O)N2C[C@H]3C(=O)C[C@@H](c4ccccc4F)N(S(=O)(=O)c4ccc(C)cc4)[C@H]3C[C@H]2c2cccc3ccccc23)cc1,inconclusive: 50.3%
13,O=C1c2cccc3cccc(c23)C(=O)N1Cc1ccccn1,inconclusive: 37.6%
14,O=C(CCN1C(=O)/C(=C/c2ccc3c(c2)OCO3)SC1=S)NNC(=O)c1cccnc1,active: 46.7%
15,Cc1ccc(C(=O)CN2C(=O)c3ccccc3S2(=O)=O)cc1,inconclusive: 37%
16,CCOC(=O)COc1cccc2c(=O)n(CC(=O)N3CCc4ccccc43)ccc12,inconclusive: 63.4%
17,Cc1cc2cc(C#N)c(N3CCN(S(C)(=O)=O)CC3)nc2cc1C,inconclusive: 26.4%
18,CCC(=O)N1CC2(C1)CN(Cc1ccccc1Cl)[C@@H](CO)c1c2c2ccc(OC)cc2n1C,inconclusive: 54.6%
19,O=C(NC1CCCCC1)N[C@H]1C=C[C@@H](CC(=O)N2CCOCC2)O[C@H]1CO,inconclusive: 57.9%
20,COc1ccc(S(=O)(=O)Nc2ccc3c(c2)C(=O)N([C@H](C)CO)C[C@H](C)[C@@H](CN(C)C(=O)CCC(F)(F)F)OCCCC[C@@H](C)O3)cc1,inactive: 9.94%
21,Cc1ccc(C)c(S(=O)(=O)N2CCN(C(=O)Nc3ccccc3)CC2)c1,inconclusive: 24.8%
22,CCC(=O)Nc1ccc2c(c1)OC[C@@H](C)N(C(=O)C1CC1)C[C@H](C)[C@H](OC)CN(C)C2=O,active: 36.1%
23,CC(=O)Nc1cnc(-c2ccccc2O)cn1,inconclusive: 55%

# Ordered by number of heavy atoms (falling): part of the list above
row,SMILES,CPE inhibition
7,C[C@@H]1CCCCO[C@@H](CN(C)C(=O)Nc2cccc3ccccc23)[C@H](C)CN([C@H](C)CO)C(=O)c2cc(NC(=O)c3ccncc3)ccc2O1,inactive: 2.9%
12,Cc1ccc(S(=O)(=O)N2C[C@H]3C(=O)C[C@@H](c4ccccc4F)N(S(=O)(=O)c4ccc(C)cc4)[C@H]3C[C@H]2c2cccc3ccccc23)cc1,inconclusive: 50.3%
1,O=C(Cc1cccc(NC(=O)C2CCN(C(=O)c3ccccc3)CC2)c1)Nc1cccc(C(=O)N2CCCCC2)c1,inactive: 0.043%
2,Cc1noc(C)c1NC(=O)N(C)C[C@H]1Oc2ncc(C#CCN(C)C)cc2C(=O)N([C@H](C)CO)C[C@@H]1C,inactive: 9.01%
4,COc1ccc(S(=O)(=O)Nc2ccc3c(c2)[C@H]2C[C@@H](CC(=O)NCC4CC4)O[C@@H](CO)[C@H]2O3)cc1,inactive: -3.19%
18,CCC(=O)N1CC2(C1)CN(Cc1ccccc1Cl)[C@@H](CO)c1c2c2ccc(OC)cc2n1C,inconclusive: 54.6%
22,CCC(=O)Nc1ccc2c(c1)OC[C@@H](C)N(C(=O)C1CC1)C[C@H](C)[C@H](OC)CN(C)C2=O,active: 36.1%
14,O=C(CCN1C(=O)/C(=C/c2ccc3c(c2)OCO3)SC1=S)NNC(=O)c1cccnc1,active: 46.7%
10,CCOC(=O)C(Oc1ccc2c(-c3ccccc3)cc(=O)oc2c1)c1ccccc1 (stereo unspecified),inconclusive: 49.5%
5,CCCCNC(=O)C1(C)CCCCN1Cc1ccc(OCc2ccccc2)cc1 (stereo unspecified),inconclusive: 33.7%
19,O=C(NC1CCCCC1)N[C@H]1C=C[C@@H](CC(=O)N2CCOCC2)O[C@H]1CO,inconclusive: 57.9%
21,Cc1ccc(C)c(S(=O)(=O)N2CCN(C(=O)Nc3ccccc3)CC2)c1,inconclusive: 24.8%
9,CCOC(=O)c1sc(=S)n(C)c1NC(=O)c1ccc(C(C)(C)C)cc1,inconclusive: 50.8%
17,Cc1cc2cc(C#N)c(N3CCN(S(C)(=O)=O)CC3)nc2cc1C,inconclusive: 26.4%
13,O=C1c2cccc3cccc(c23)C(=O)N1Cc1ccccn1,inconclusive: 37.6%
8,OC[C@H]1[C@H]2c3ccccc3NC[C@H]2N1CC1CCOCC1,active: 21.1%
23,CC(=O)Nc1cnc(-c2ccccc2O)cn1,inconclusive: 55%

# Given with bars between the fields: part of the list above
row | SMILES | CPE inhibition
17 | Cc1cc2cc(C#N)c(N3CCN(S(C)(=O)=O)CC3)nc2cc1C | inconclusive: 26.4%
18 | CCC(=O)N1CC2(C1)CN(Cc1ccccc1Cl)[C@@H](CO)c1c2c2ccc(OC)cc2n1C | inconclusive: 54.6%
